According to article PMC7407311:

Key:
[1] = molecular target: T1, chemokine (C-X-C motif) ligand 14 (CXCL14), endogenous in hESCs (human (endogenous in hESCs)) (UniProt O95715); test: co-IP; hESC lysate (1 mg; 20 mM Tris, 1% Triton X-100, 150 mM NaCl) with 1 ug antibody against IGF-1R or CXCL14 or isotype IgG overnight at 4 °C, Protein G magnetic beads, washed 5 times with PBST, Western blot
T1 sequence: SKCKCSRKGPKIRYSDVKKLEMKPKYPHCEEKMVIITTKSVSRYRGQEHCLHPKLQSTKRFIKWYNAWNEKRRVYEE

[2] = molecular target: insulin-like growth factor 1 receptor (IGF-1R), endogenous in hESCs (human (endogenous in hESCs)); test: proximity ligation; Duolink PLA on fixed hESCs, endogenous CXCL14 and IGF-1R (Ctrl), isotype IgG as negative control
[3] = molecular target: insulin-like growth factor 1 receptor (IGF-1R), endogenous in hESCs (human (endogenous in hESCs)); test: co-IP; hESC lysate (1 mg; 20 mM Tris, 1% Triton X-100, 150 mM NaCl) with 1 ug antibody against IGF-1R or CXCL14 or isotype IgG overnight at 4 °C, Protein G magnetic beads, washed 5 times with PBST, Western blot
[4] = molecular target: insulin-like growth factor 1 receptor (IGF-1R), endogenous in hESCs (human (endogenous in hESCs)); test: proximity ligation; Duolink PLA on fixed hESCs treated with exogenous CXCL14 (+CXCL14); only the binder purified

**Q.** How did the binding [1] turn out when “insulin-like growth factor 1 receptor (IGF-1R), endogenous in hESCs (human (endogenous in hESCs))” was run?
**A.** Its binding is “binds”.

B1: chemokine (C-X-C motif) ligand 14 (CXCL14), endogenous in hESCs (ligand, UniProt O95715 35-111)
chain: T1 sequence
**Q.** How did the binding [2] turn out when B1 was run?
**A.** Its binding is “binds”.

**Q.** And the binding [3]?
**A.** The binding was “binds”.

B2: recombinant CXCL14 protein (PeproTech) (ligand, UniProt O95715 35-111)
chain: T1 sequence
**Q.** B2 was tested. Which binding [4] did it give?
**A.** The binding was “binds”.

No constants are given. Whether binding was seen depends on the method and setting. In cells and extracts the contact can be indirect. Binding can be weak; no strength is given.
